Values from PubChem BioAssay AID686943 (Drosophila RNAi Screening Center, 2013)
The deposit covers about 23,000 reagents; below is a random part of those with a known target gene and a result. 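Extra replicates exist only for a retested subset of genes; insulin dose and duration not given; both raised and lowered dpERK matter.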 Further read-outs or replicates are left out here. No sequences are given here. Not given: the amount of reagent, the time to read-out.

Screen: 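Knockdowns that increase or decrease active ERK after insulin receptor stimulation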 (primary screen)
Cells: Drosophila S2R+ haemocyte-like cells expressing YFP-tagged ERK (Rolled)
Knock-down reagent: long dsRNA against Drosophila genes
Conditions: insulin stimulation versus unstimulated cells; dose and duration not given
Read-out: 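Per-plate z-scores of phospho-ERK immunostaining normalised to YFP-tagged ERK, measured with and without insulin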
Direction: replicate 1, z-score of dpERK with insulin and replicate 2, z-score of dpERK with insulin: higher = more active ERK per ERK-YFP after insulin

The opening 3 entries, ahead of the listing:
{"gene": "TwdlW", "amplicon": "DRSC15540", "replicate 1, z-score of dpERK with insulin": 0.02, "replicate 2, z-score of dpERK with insulin": 0.51}
{"gene": "CG14034", "amplicon": "DRSC02359", "replicate 1, z-score of dpERK with insulin": 0.08, "replicate 2, z-score of dpERK with insulin": -0.38}
{"gene": "CtsL2", "amplicon": "DRSC06978", "replicate 1, z-score of dpERK with insulin": 0.61, "replicate 2, z-score of dpERK with insulin": 0.27}

The listing, repeating the preview:
{"gene": "TwdlW", "amplicon": "DRSC15540", "replicate 1, z-score of dpERK with insulin": 0.02, "replicate 2, z-score of dpERK with insulin": 0.51}
{"gene": "CG14034", "amplicon": "DRSC02359", "replicate 1, z-score of dpERK with insulin": 0.08, "replicate 2, z-score of dpERK with insulin": -0.38}
{"gene": "CtsL2", "amplicon": "DRSC06978", "replicate 1, z-score of dpERK with insulin": 0.61, "replicate 2, z-score of dpERK with insulin": 0.27}
{"gene": "Cdk5alpha", "amplicon": "DRSC03290", "replicate 1, z-score of dpERK with insulin": -1.74, "replicate 2, z-score of dpERK with insulin": -0.56}
{"gene": "CG11437", "amplicon": "DRSC11659", "replicate 1, z-score of dpERK with insulin": -0.11, "replicate 2, z-score of dpERK with insulin": 0.08}
{"gene": "CG6262", "amplicon": "DRSC06971", "replicate 1, z-score of dpERK with insulin": -1.34, "replicate 2, z-score of dpERK with insulin": -3.81}
{"gene": "CG33969", "amplicon": "DRSC11777", "replicate 1, z-score of dpERK with insulin": 0.19, "replicate 2, z-score of dpERK with insulin": -0.24}
{"gene": "CG30349", "amplicon": "DRSC06421", "replicate 1, z-score of dpERK with insulin": -0.1, "replicate 2, z-score of dpERK with insulin": -0.22}
{"gene": "CG30349", "amplicon": "DRSC06839", "replicate 1, z-score of dpERK with insulin": -0.57, "replicate 2, z-score of dpERK with insulin": 0.03}
{"gene": "CG17404", "amplicon": "DRSC15234", "replicate 1, z-score of dpERK with insulin": 0.44, "replicate 2, z-score of dpERK with insulin": 0.12}
{"gene": "CG6665", "amplicon": "DRSC07006", "replicate 1, z-score of dpERK with insulin": 0.09, "replicate 2, z-score of dpERK with insulin": 0.24}
{"gene": "cpo", "amplicon": "DRSC13265", "replicate 1, z-score of dpERK with insulin": 1.07, "replicate 2, z-score of dpERK with insulin": 2.04}
{"gene": "cpo", "amplicon": "DRSC13273", "replicate 1, z-score of dpERK with insulin": -0.08, "replicate 2, z-score of dpERK with insulin": 1.1}
{"gene": "cpo", "amplicon": "DRSC14503", "replicate 1, z-score of dpERK with insulin": -3.16, "replicate 2, z-score of dpERK with insulin": -4.15}
{"gene": "cpo", "amplicon": "DRSC15327", "replicate 1, z-score of dpERK with insulin": -2.44, "replicate 2, z-score of dpERK with insulin": -3.31}
{"gene": "cpo", "amplicon": "DRSC16926", "replicate 1, z-score of dpERK with insulin": -2.36, "replicate 2, z-score of dpERK with insulin": -2.14}
{"gene": "CG32564", "amplicon": "DRSC19933", "replicate 1, z-score of dpERK with insulin": 0.85, "replicate 2, z-score of dpERK with insulin": 0.69}
{"gene": "CecA2", "amplicon": "DRSC16604", "replicate 1, z-score of dpERK with insulin": -0.13, "replicate 2, z-score of dpERK with insulin": -0.09}
{"gene": "viaf", "amplicon": "DRSC10326", "replicate 1, z-score of dpERK with insulin": -0.36, "replicate 2, z-score of dpERK with insulin": -0.59}
{"gene": "Ser8", "amplicon": "DRSC06891", "replicate 1, z-score of dpERK with insulin": -0.72, "replicate 2, z-score of dpERK with insulin": -1.37}
{"gene": "BomS4", "amplicon": "DRSC22509", "replicate 1, z-score of dpERK with insulin": 0.13, "replicate 2, z-score of dpERK with insulin": 0.36}
{"gene": "Mat89Ba", "amplicon": "DRSC14540", "replicate 1, z-score of dpERK with insulin": -0.15, "replicate 2, z-score of dpERK with insulin": -0.93}
{"gene": "CG11438", "amplicon": "DRSC11660", "replicate 1, z-score of dpERK with insulin": -0.58, "replicate 2, z-score of dpERK with insulin": 0.46}
{"gene": "mRpS30", "amplicon": "DRSC20107", "replicate 1, z-score of dpERK with insulin": 0.55, "replicate 2, z-score of dpERK with insulin": -0.26}
{"gene": "CSN1b", "amplicon": "DRSC11108", "replicate 1, z-score of dpERK with insulin": -0.05, "replicate 2, z-score of dpERK with insulin": -0.71}
{"gene": "CG15643", "amplicon": "DRSC19679", "replicate 1, z-score of dpERK with insulin": 0.29, "replicate 2, z-score of dpERK with insulin": 0.71}
{"gene": "bw", "amplicon": "DRSC04005", "replicate 1, z-score of dpERK with insulin": 0.02, "replicate 2, z-score of dpERK with insulin": 0.62}
{"gene": "bw", "amplicon": "DRSC04677", "replicate 1, z-score of dpERK with insulin": 0.24, "replicate 2, z-score of dpERK with insulin": 0.38}
{"gene": "CG17440", "amplicon": "DRSC18126", "replicate 1, z-score of dpERK with insulin": 0.2, "replicate 2, z-score of dpERK with insulin": 0.56}
{"gene": "ninaD", "amplicon": "DRSC02886", "replicate 1, z-score of dpERK with insulin": -0.17, "replicate 2, z-score of dpERK with insulin": -0.29}
{"gene": "Atx2", "amplicon": "DRSC15727", "replicate 1, z-score of dpERK with insulin": -2.68, "replicate 2, z-score of dpERK with insulin": -2.54}
